Measurements published in patent US4451473A, “3,7-Diazabicyclo [3.3.1] nonanes having anti-arrhythmic activity” (Richter Gedeon Vegyeszeti Gyar Rt., priority 1981, dated 1984).

Experiments:
in vivo = conditions: mouse, iv
[1] = test system: disorders of cardiac rhythm provoked by aconitine in rats; assay type: in vivo; conditions: ED50 rat i.v. / LD50 mouse i.v.
Experimental: When examining the antiarrhythmic effects, rats were pre-treated intravenously with 1 mg/kg of aconitine to provoke disorders of cardiac rhythm [Med. Exp. (Basel) 10, 93 (1964)], thereafter the test compound was administered intravenously, and the dose required to restore the rhythm in 50% (ED50 mg/kg) was determined.

CCN(CC)CC(=O)Nc1c(C)cccc1C [Lidocaine, reference compound]
LD50 (in vivo): 28.5 mg/kg
Therap. index (ED50/LD50) [1]: 0.351
